Data on 42 sequences can be found in publication PMC7819943, “Rice protein-binding microarrays: a tool to detect cis-acting elements near promoter regions in rice”.

The chains behind the UniProt entries cited, without tags or fusion partners.
UniProt Q0JBA9, entry or part of it: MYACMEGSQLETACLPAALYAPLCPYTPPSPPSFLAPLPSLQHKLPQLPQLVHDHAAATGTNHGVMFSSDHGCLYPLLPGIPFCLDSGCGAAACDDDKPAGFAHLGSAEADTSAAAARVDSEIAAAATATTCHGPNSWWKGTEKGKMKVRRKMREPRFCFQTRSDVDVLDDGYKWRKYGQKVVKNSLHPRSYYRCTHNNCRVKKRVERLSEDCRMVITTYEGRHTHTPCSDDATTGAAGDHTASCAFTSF

The list shows a part of the results.

The target in the assay is OsWRKY34 (Oryza sativa, UniProt Q0JBA9 1-250). In words: protein-binding microarray (RPBM); PBS, 2% BSA, 51.3 ng/ul salmon testes DNA, 50 uM zinc acetate, 200 nM TF, 25 C, 1 h; high values mean tight binding. The following applies: protein: recombinant; tags: N-terminal polyhistidine and DsRed monomer fusion (pET32a); label: CyDye5-dUTP incorporated in the synthesized complementary strand; 3' TTTTT single-stranded linker to array surface; dsDNA, one strand shown. A digest of the protocol: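 Binding signal here means per-feature fluorescence intensity in arbitrary units. The values were read on an Axon 4000B scanner after a custom Agilent array, double-stranded by primer extension with Cy5-dUTP, was incubated with 200 nM protein at 25 °C for 1 h in PBS with 2% BSA, salmon testes DNA and 50 µM zinc acetate, then washed. The proteins were transcription factors with an N-terminal polyhistidine tag and DsRed, expressed in E. coli BL21-CodonPlus and purified on Ni–NTA.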
Regarding “GCTTCTTCAATGCTATCCCGTCGACCGCCGCTCGCCGGCTCGGAGTCACCTAGTGCAG”, the binding signal was 8560 fluorescence intensity (a.u.).
The result for “GTTTCCGGGGTGACATGTGCATATATCACTTTTGGTTCCGCGGAGTCACCTAGTGCAG” reads 9190 fluorescence intensity (a.u.); that for “GCCCGCTTTTAGTCCGCAGCTTACACTTGTTTCGTCTCATCGGAGTCACCTAGTGCAG”, 12600 fluorescence intensity (a.u.); that for “AATTTTTTCATGAACTTTCTCTTGTCATGCTTGATGTGTACGGAGTCACCTAGTGCAG”, 8400 fluorescence intensity (a.u.).
Consider “AGAAAAACACGAGGTGAAATCTCATACTTATTTTCCTTCACGGAGTCACCTAGTGCAG”, for which the binding signal was 8210 fluorescence intensity (a.u.).
Regarding “CTGTATAAACTTCTAACCTCTGATTTCTTTCACTACTGATCGGAGTCACCTAGTGCAG”, the binding signal is 8200 fluorescence intensity (a.u.).
Next, “CCTTTATCGTCTCAACTATTGTAAACATATGGTCTCTAAACGGAGTCACCTAGTGCAG”: 8220 fluorescence intensity (a.u.); “CTTCTCGGTTGTTCTCTTTGTTCCGTGATGGCTTTTTTGGCGGAGTCACCTAGTGCAG”: 11600 fluorescence intensity (a.u.).
Regarding “ATATAGCTAAGTCCTAATCCATTTTCAACCCTTTGTTAATCGGAGTCACCTAGTGCAG”, the binding signal is 9760 fluorescence intensity (a.u.).
The result for “TATTGGCTTAGATCGCTGACTGTTATTCATTATCCTTTCTCGGAGTCACCTAGTGCAG” reads 9800 fluorescence intensity (a.u.); that for “ACCTTCTCGATTCACCGCGCTTATGCGGCCACTGCACAAACGGAGTCACCTAGTGCAG”, 11400 fluorescence intensity (a.u.); that for “TCTAACTCGTTTTACCTATCTTCTCTAATCCTCCTCAAACCGGAGTCACCTAGTGCAG”, 9550 fluorescence intensity (a.u.).
For “CGATCAACGTTTGACTATTTGTTTTATTCAAAATTTTTGTCGGAGTCACCTAGTGCAG”, the binding signal is 9460 fluorescence intensity (a.u.).
The result for “TGACATGGTATATCTTCTATTTAGACATGATGATCTTTTACGGAGTCACCTAGTGCAG” reads 9610 fluorescence intensity (a.u.); that for “GCCTCCGCCTCCGCCCGCCGCCGACGACTCTCCGACTCCCCGGAGTCACCTAGTGCAG”, 10100 fluorescence intensity (a.u.).
In the case of “CATGGCGACCTCGCCTCGTGTTCCCTTTCCTAACCGCCGCCGGAGTCACCTAGTGCAG”, the binding signal is 9860 fluorescence intensity (a.u.).
The result for “TGTTAAGAAAAAAAAAATAGAAAAACGTCTCAATTGTAAGCGGAGTCACCTAGTGCAG” reads 8170 fluorescence intensity (a.u.); that for “AGGTTCTTGACTCACCAGACCCATTTGTTGCCTCAGCCACCGGAGTCACCTAGTGCAG”, 8620 fluorescence intensity (a.u.); that for “AGCCAGAGGTACAAGTGGTGCCTGATGATATATACTTGTTCGGAGTCACCTAGTGCAG”, 8460 fluorescence intensity (a.u.).
With “ATTGGGCTCTGTTTAATTTGTGGTGGGCCGATGTCAAAGGCGGAGTCACCTAGTGCAG”, the binding signal is 9890 fluorescence intensity (a.u.).
Next, “ATTTTCGTCGCGTCAACTTATATACGAAAGTTAATTAATGCGGAGTCACCTAGTGCAG”: 8160 fluorescence intensity (a.u.); “GGGGTTTGCTGCAATTTGTTGTGTTCGTCGGCGGCGAGCGCGGAGTCACCTAGTGCAG”: 10800 fluorescence intensity (a.u.); “GGCGCCTGGAGGCCTCCGTCGTTTGTGCCGCCCCGTCGCCCGGAGTCACCTAGTGCAG”: 8780 fluorescence intensity (a.u.).
Next, “GTCGGTCGGTCTCCTCCCACCACCCGCCGCCGCCGCCATGCGGAGTCACCTAGTGCAG”: 10700 fluorescence intensity (a.u.); “TTTCAATTTTTTCACTACATCGTTCTAGTTTTTTCAAACTCGGAGTCACCTAGTGCAG”: 8470 fluorescence intensity (a.u.).
With “GAATGGCGACAAGTTGTGTTTTGCTCGTACCGTATTCAGTCGGAGTCACCTAGTGCAG”, the binding signal was 11000 fluorescence intensity (a.u.).
In the case of “GCCGCCGCCTGCTGCACTGACCTCCCCGCCGTCGTCGCGACGGAGTCACCTAGTGCAG”, the binding signal is 9730 fluorescence intensity (a.u.).
With “GACTAAATATGATCTTACGCTGCATTTATTTTTGGAATTTCGGAGTCACCTAGTGCAG”, the binding signal was 8070 fluorescence intensity (a.u.).
“GTTGGTTTATTTTGAGACGGAGAGACTATATGTGTTTGGACGGAGTCACCTAGTGCAG”: the binding signal was 8520 fluorescence intensity (a.u.).
Consider “AAGAAGGGTCAGGAGGGTTGGGAGGGGACGCATTGCAATGCGGAGTCACCTAGTGCAG”, for which the binding signal was 11700 fluorescence intensity (a.u.).
As to “TACTCTAGCACACATGTTTAAATGTTTTCGTCTTTTAGAACGGAGTCACCTAGTGCAG”, the binding signal was 8100 fluorescence intensity (a.u.).
As to “TATTTCATATTCTTCATTCCACTTGCTATGATACAATGTTCGGAGTCACCTAGTGCAG”, the binding signal was 9860 fluorescence intensity (a.u.).
The result for “CCTCCTGCTCGATCCATCCATCCATCCACCCGAACCCTAGCGGAGTCACCTAGTGCAG” reads 9570 fluorescence intensity (a.u.).
Next, “TGCATATATATCCAGCCGTTACCGAAACTGCTTGCATCACCGGAGTCACCTAGTGCAG”: 8320 fluorescence intensity (a.u.).
Regarding “TCCCCAACCTTAGCTAGCTACTACTGTCATGCAACGAATTCGGAGTCACCTAGTGCAG”, the binding signal is 8050 fluorescence intensity (a.u.).
The result for “TTTAGTTCTAAACTTTCGCTCCATACTACAACCTTCTCATCGGAGTCACCTAGTGCAG” reads 9150 fluorescence intensity (a.u.); that for “GCTTTTCTCAATCTCCATAGCTTTGGCATCGTCCACCTATCGGAGTCACCTAGTGCAG”, 8210 fluorescence intensity (a.u.).
Consider “CGCTGCCCTCCGCCCACCGCTGCTCCGTCTACCGCGCTCGCGGAGTCACCTAGTGCAG”, for which the binding signal was 8960 fluorescence intensity (a.u.).
As for “TTTTGTGTGTGTAGGGGATAATAATTAAAGGGGAGATTTTCGGAGTCACCTAGTGCAG”, the binding signal is 9080 fluorescence intensity (a.u.).
The result for “GTTGCCACCTGCCCTGTTCGTGTTTGCGATTGATTTGTACCGGAGTCACCTAGTGCAG” reads 10200 fluorescence intensity (a.u.); that for “CTCATTGGCGCCGTGATCTAATATAATGGTAAACGTTGACCGGAGTCACCTAGTGCAG”, 13000 fluorescence intensity (a.u.); that for “TTCCTACATACATGCATGCATACTCAATTTTCATGCTTAACGGAGTCACCTAGTGCAG”, 8820 fluorescence intensity (a.u.).
